# Source: PubChem BioAssay AID493014 (National Center for Advancing Translational Sciences (NCATS), 2011)
# The list shows a part of the results. Shown are side measurements of this screen, not its main read-out; they come without a call. Most of these compounds were active or inconclusive in the main read-out, so they are no random draw. Words in brackets tell the shape of the fitted curve; partial curves, single points and poor fits give uncertain potencies.
# Experiment: qHTS Assay to Find Inhibitors of Chronic Active B-Cell Receptor Signaling
# Conditions: ABC-DLBCL IkBa-CBG/CBR reporter, luminescence ratio (green luciferase fused to IkBa over red control in TMD8 lymphoma cells), 4 h
# Summary of the method: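 Cell line TMD8 (human ABC DLBCL), stably expressing tet-inducible CBG68-IkBa fusion and CBR; IMDM/0.5% FBS; cpd up to 46 uM; dox induction, 4 h, 37C/5% CO2; dual luminescence; green/red ratio; MG132 control.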
# [1] = measured here: CBR red luminescence, cell number
# [2] = measured here: IkBa-CBG green luminescence
SMILES,AC50 [1],AC50 [2]
Cc1csc(=Nc2cccnc2)n1CC1CCCCC1,"0.82 µM [falling, partial curve, poor fit]",
COC(=O)c1ccc(C#Cc2ccccc2)o1,"0.794 µM [rising, full curve]",
CN(Cc1ccccc1)C(=O)COc1ccc(Br)cc1Cl,"0.794 µM [rising, full curve, poor fit]",
COC(=O)c1cc(=O)n(-c2ccc(F)cc2)c(=Nc2ccc(F)cc2)s1,"18.4 µM [falling, partial curve, poor fit]","25.9 µM [falling, single point]"
CN(C)c1nc(N(C)C)nc(N(C#N)Cc2ccc(Cl)cc2)n1,"25.1 µM [rising, single point]",
Cc1ccc(OCC(=O)NC(=S)Nc2ccc(Br)cn2)cc1,"12.6 µM [rising, single point]",
CC(C)Cc1nc(N2CCN(C(=O)c3ccco3)CC2)c(C#N)c2c1CCC2,"35.5 µM [falling, single point]",
COc1cccc(CN2CCN(c3ncccn3)CC2)c1,"35.5 µM [falling, single point]",
CSc1ccccc1NC(=O)c1noc2c1CCC2,"2.91 µM [falling, partial curve, poor fit]",
O=C(O)c1ccc(-n2c(-c3ccccc3)n[nH]c2=S)cc1,"7.94 µM [falling, partial curve, poor fit]",
Cc1ccc(-c2nn(C)c(=O)c3ccccc23)cc1S(=O)(=O)N1CCCC1,"29.1 µM [rising, single point]",
COc1cc2[nH]c3c(N4CCN(c5ccccn5)CC4)ncnc3c2cc1OC,"15.8 µM [falling, single point]",
COc1ccc(-c2nc3c4ccccc4ccn3c2CN2CCOCC2)cc1OC,"1.26 µM [rising, full curve]",
O=C(Nc1ccc2ncccc2c1)Nc1ccc2ncccc2c1,"0.794 µM [rising, full curve]",
Cc1nc(NCc2ccco2)c2c3c(sc2n1)CCC3,"5.01 µM [rising, partial curve]",
N#CCCn1nc(-c2ccccc2)cc1Nc1ccccc1NC(=O)C(F)(F)F,"7.31 µM [falling, partial curve, poor fit]",
CCOc1ccccc1C(=O)NCCCN1CCN(CCCNC(=O)c2ccccc2OCC)CC1,"7.31 µM [rising, single point]",
Cc1ccc(OCCCCN2CCc3ccccc3C2)cc1,"5.01 µM [rising, full curve]",
C/C(=N\NC(=O)c1ccoc1C)c1ccccc1,"12.6 µM [falling, partial curve, poor fit]",
Cc1ccc2c(c1)c1nc3ccccc3nc1n2CCN1CCOCC1,"0.00651 µM [rising, full curve, poor fit]",
COc1ccccc1CNc1ncnc2c1nnn2Cc1ccccc1,"0.562 µM [falling, full curve]",
O=C(NC1CCCC1)c1cc(-c2ccc(F)cc2)on1,"1.12 µM [falling, full curve]",

# Full records as entered above.
# `Cc1csc(=Nc2cccnc2)n1CC1CCCCC1` is listed as AC50 [1]: 0.82 µM [falling, partial curve, poor fit]
# `Cc1ccc(OCC(=O)NC(=S)Nc2ccc(Br)cn2)cc1` is listed as AC50 [1]: 12.6 µM [rising, single point]
# `COc1cccc(CN2CCN(c3ncccn3)CC2)c1` is listed as AC50 [1]: 35.5 µM [falling, single point]

# Next results

SMILES,AC50 [1],AC50 [2]
Nc1ncnc2c1ncn2[C@@H]1O[C@H](CNCC(O)CO)[C@@H](O)[C@H]1O (some centres not stated),"10.3 µM [rising, partial curve, poor fit]",
Cc1no[n+]([O-])c1COc1cccc(/C=N/Nc2nncn2N)c1,"35.5 µM [falling, single point]",
Cc1ccccc1C(=O)Nc1nnc(-c2ccco2)s1,"6.31 µM [falling, partial curve, poor fit]",
CC(=O)NCCNC(=O)CCNC(=O)c1ccc(Cl)cc1,"6.51 µM [falling, single point]",
CCC(C)(C)n1nnnc1C(c1cc2cc(C)cc(C)c2[nH]c1=O)N1CCN(Cc2ccc3c(c2)OCO3)CC1 (configuration not stated),"29.1 µM [falling, single point]",
COc1ccc(C2=NO[C@@H]3C(=O)N(c4cccc(C)c4C)C(=O)[C@H]23)cc1OC,"3.66 µM [rising, partial curve, poor fit]",
COc1ccc(CN2CC(C(=O)NCCN3CCOCC3)CC2=O)cc1 (configuration not stated),"0.366 µM [rising, full curve, poor fit]",
CCN1CCSc2ccc(C(=O)NCc3ccccc3C)cc21,"17.8 µM [falling, single point]",
COC(=O)C(C)Sc1snnc1-c1ccccc1 (configuration not stated),"23.1 µM [rising, partial curve, poor fit]",
C=CCCN([C@@H](C)C(=O)OC)S(=O)(=O)c1ccccc1Br,"6.31 µM [rising, single point]",
O=C(/C=C/c1ccccc1Cl)OCC(=O)c1ccc[nH]1,"0.82 µM [rising, full curve, poor fit]",
CCOC(=O)c1cnc2ccc(C)cc2c1Sc1ccccc1,"2.91 µM [falling, full curve, poor fit]",
Cc1ccc(CONC(=O)c2cccc(C)c2)cc1,"3.26 µM [falling, partial curve, poor fit]",
COc1ccccc1CN1CN(S(=O)(=O)c2ccccc2)c2nc3ccccc3nc21,"35.5 µM [falling, single point]",
CCN(C(=O)COC(=O)CNC(=O)C12CC3CC(CC(C3)C1)C2)C1CCS(=O)(=O)C1 (configuration not stated),"0.00366 µM [rising, full curve, poor fit]",
CCC(C)NC(=O)C(NS(=O)(=O)c1cccc2nsnc12)c1ccccc1 (configuration not stated),"11.2 µM [rising, partial curve, poor fit]",
CCOC(=O)N1CCN(CC(=O)Nc2cc(OCC)ccc2OCC)CC1,"32.6 µM [rising, single point]",
COc1cc(/C=C/C(=O)OCC(=O)NCCc2ccccc2)ccc1OC(F)F,"10 µM [rising, partial curve, poor fit]",
O=C(/C(=C\c1ccccc1)c1nc2ccccc2[nH]1)c1ccc(Cl)cc1,"16.4 µM [falling, single point]","29.1 µM [rising, partial curve, poor fit]"
O=C(CN1CCN(C(=O)c2cncn2-c2ccccc2)CC1)Nc1ccccc1Cl,"23.1 µM [falling, single point]",
CCOC(=O)c1c(C)[nH]c(C)c1C(=O)COC(=O)/C=C/c1ccccc1[N+](=O)[O-],"11.6 µM [rising, partial curve, poor fit]",
CCOC(CNC(=O)Cn1nc(Cc2ccncc2)c2ccccc2c1=O)OCC,"2.51 µM [rising, full curve, poor fit]",

SMILES,AC50 [1],AC50 [2]
CCOc1ccc(C(C)=O)cc1CSc1nnc(N)s1,"31.6 µM [rising, single point]",
O=C1COc2ccc(C(=O)COC(=O)c3cc(S(=O)(=O)NCc4ccccc4)ccc3O)cc2N1,"5.62 µM [rising, partial curve, poor fit]",
NC(=O)CSc1nc2sc3c(c2c2ncnn12)CCCC3,"20 µM [rising, partial curve, poor fit]",
Cc1sc2c(c1C)CN(C(C)(C)C)CN2C(=O)c1ccccc1,"3.26 µM [falling, partial curve, poor fit]",
Cc1cc(NC(=O)CCCS(=O)(=O)c2nc(-c3cccs3)cc(C(F)(F)F)n2)no1,"7.08 µM [falling, partial curve]",
Cc1ccc(C(=O)N2CCCC(C(=O)c3cc(F)ccc3F)C2)s1 (configuration not stated),"8.91 µM [rising, partial curve, poor fit]",
COc1ccc(N=Nc2c(N)n[nH]c2N)cc1,"6.31 µM [falling, single point]",
Cn1cccc1/C=C(/C#N)c1ccc(F)cc1,"2.82 µM [rising, full curve, poor fit]",
CC(NCc1ccc2c(c1)OCO2)C(=O)NC1CCCc2ccccc21 (configuration not stated),"0.116 µM [falling, full curve, poor fit]",
Fc1ccc(-c2csc(-c3cccnc3)n2)cc1F,"0.891 µM [rising, full curve, poor fit]",
O=C(/C=C/NNC(=O)c1cccc(Br)c1)c1cccc(Br)c1,"2.91 µM [falling, full curve]",
CN(C)/C=C1\N=C(c2ccc(Cl)cc2Cl)OC1=O,"4.11 µM [rising, single point]",
CC(=O)CSc1nnc(-c2ccc3c(c2)OCO3)o1,"20.6 µM [falling, partial curve]",
Cc1ccc(OCc2cc(C(=O)NC3CCc4ccccc43)no2)cn1 (configuration not stated),"7.94 µM [falling, partial curve, poor fit]",
CC1CCN(C(=O)c2[nH]cnc2C(=O)N[C@@H](C)c2ccccc2)CC1,"5.8 µM [falling, partial curve, poor fit]",
COc1ccc(Cl)cc1C(=O)Nc1ccc(NC(=O)C(C)C)cc1,"0.126 µM [rising, full curve, poor fit]",
CCc1ccc(S(=O)(=O)Nc2cc(SCC(=O)O)c(O)c3ccccc23)cc1,"14.1 µM [falling, single point]",
Cc1occc1-c1nnc(SCC(=O)NCCc2ccccc2)o1,"25.1 µM [rising, single point]",
CN(C)CCN(C(=O)c1cccs1)c1nc2cc3c(cc2s1)OCCO3,"39.8 µM [falling, partial curve, poor fit]",
Cc1nc2c(Br)c3nc(C(F)(F)F)[nH]c3c(Br)c2[nH]1,"6.31 µM [rising, single point]",
CCOC(=O)c1ccc(N2CCN(c3cc(C)ccc3C)CC2)c(NC(=O)Nc2ccc(Cl)cc2)c1,"6.31 µM [rising, partial curve, poor fit]",
